Test: Sedative action: Irwin Test (passivity, ataxia)
Settings: rat, i.p., 80 mg/kg

## CN(C)CCOC(c1ccccc1)c1ccccc1 [Difenhidramine, reference compound]
  Effect: toxic: Toxic

From patent US5166205A, “Derivatives of 1-diphenylmethyl piperazine and their use as antihistamines” (Laboratorios Del Dr. Esteve, S. A., priority 1990, dated 1992)
